Test [1] addresses FLAG-Rab40c (transfected in 293T cells) (human) (UniProt Q96S21). As to the kind of experiment: co-IP.
The target of test [2] is endogenous Rab40c (293T cells) (human (endogenous in 293T)) (UniProt Q96S21). Description: co-IP.

The chains behind the UniProt entries cited, without tags or fusion partners.
UniProt Q96S21: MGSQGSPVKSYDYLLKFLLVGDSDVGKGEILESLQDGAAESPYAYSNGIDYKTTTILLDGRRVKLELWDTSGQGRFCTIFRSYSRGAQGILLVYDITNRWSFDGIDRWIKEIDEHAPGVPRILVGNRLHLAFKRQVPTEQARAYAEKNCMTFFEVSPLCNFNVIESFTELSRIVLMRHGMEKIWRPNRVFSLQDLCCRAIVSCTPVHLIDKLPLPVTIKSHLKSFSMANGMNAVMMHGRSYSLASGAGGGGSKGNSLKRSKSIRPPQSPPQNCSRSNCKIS

These are yes or no findings as the source states them, for the method shown. In cells and extracts the contact can be indirect. Some binding calls cover weakened binding; strength is not graded here.

B1: PP6R1 (endogenous, 293T) (protein, UniProt Q9UPN7 1-881)
chain: MFWKFDLHTSSHLDTLLEREDLSLPELLDEEDVLQECKVVNRKLLDFLLQPPHLQAMVAWVTQEPPDSGEERLRYKYPSVACEILTSDVPQINDALGADESLLNRLYGFLQSTGSLNPLLASFFSKVMGILINRKTDQLVSFLRKKDDFVDLLLQHIGTSAIMDLLLRLLTCVERPQLRQDVVNWLNEEKIVQRLIEQIHPSKDENQHSNASQSLCDIIRLSREQMIQVQDSPEPDQLLATLEKQETIEQLLSNMFEGEQSQSVIVSGIQVLLTLLEPRRPRSESVTVNSFFSSVDGQLELLAQGALESTVSSVGALHALRPRLSCFHQLLLEPPKLEPLQMTWGMLAPPLGNTRLHVVKLLASALSANDAALTHELLALDVPNTMLDLFFHYVFNNFLHAQVEGCVSTMLSLGPPPDSSPETPIQNPVVKHLLQQCRLVERILTSWEENDRVQCAGGPRKGYMGHLTRVAGALVQNTEKGPNAEQLRQLLKELPSEQQEQWEAFVSGPLAETNKKNMVDLVNTHHLHSSSDDEDDRLKEFNFPEEAVLQQAFMDFQMQRMTSAFIDHFGFNDEEFGEQEESVNAPFDKTANITFSLNADDENPNANLLEICYKDRIQQFDDDEEEEDEEEAQGSGESDGEDGAWQGSQLARGARLGQPPGVRSGGSTDSEDEEEEDEEEEEDEEGIGCAARGGATPLSYPSPGPQPPGPSWTATFDPVPTDAPTSPRVSGEEELHTGPPAPQGPLSVPQGLPTQSLASPPARDALQLRSQDPTPPSAPQEATEGSKVTEPSAPCQALVSIGDLQATFHGIRSAPSSSDSATRDPSTSVPASGAHQPPQTTEGEKSPEPLGLPQSQSAQALTPPPIPNGSAPEGPASPGSQ
For B1, the binding entry in test [1] and in test [2] was “binds” in each case.

B2: ANKRD28 (endogenous, 293T) (protein, UniProt O15084 1-1053)
chain: MAFLKLRDQPSLVQAIFNGDPDEVRALIFKKEDVNFQDNEKRTPLHAAAYLGDAEIIELLILSGARVNAKDSKWLTPLHRAVASCSEEAVQVLLKHSADVNARDKNWQTPLHIAAANKAVKCAEALVPLLSNVNVSDRAGRTALHHAAFSGHGEMVKLLLSRGANINAFDKKDRRAIHWAAYMGHIEVVKLLVSHGAEVTCKDKKSYTPLHAAASSGMISVVKYLLDLGVDMNEPNAYGNTPLHVACYNGQDVVVNELIDCGAIVNQKNEKGFTPLHFAAASTHGALCLELLVGNGADVNMKSKDGKTPLHMTALHGRFSRSQTIIQSGAVIDCEDKNGNTPLHIAARYGHELLINTLITSGADTAKRGIHGMFPLHLAALSGFSDCCRKLLSSGFDIDTPDDFGRTCLHAAAAGGNLECLNLLLNTGADFNKKDKFGRSPLHYAAANCNYQCLFALVGSGASVNDLDERGCTPLHYAATSDTDGKCLEYLLRNDANPGIRDKQGYNAVHYSAAYGHRLCLQLIASETPLDVLMETSGTDMLSDSDNRATISPLHLAAYHGHHQALEVLVQSLLDLDVRNSSGRTPLDLAAFKGHVECVDVLINQGASILVKDYILKRTPIHAAATNGHSECLRLLIGNAEPQNAVDIQDGNGQTPLMLSVLNGHTDCVYSLLNKGANVDAKDKWGRTALHRGAVTGHEECVDALLQHGAKCLLRDSRGRTPIHLSAACGHIGVLGALLQSAASMDANPATADNHGYTALHWACYNGHETCVELLLEQEVFQKTEGNAFSPLHCAVINDNEGAAEMLIDTLGASIVNATDSKGRTPLHAAAFTDHVECLQLLLSHNAQVNSVDSTGKTPLMMAAENGQTNTVEMLVSSASAELTLQDNSKNTALHLACSKGHETSALLILEKITDRNLINATNAALQTPLHVAARNGLTMVVQELLGKGASVLAVDENGYTPALACAPNKDVADCLALILATMMPVSSSSPLSSLTFNAINRYTNTSKTVSFEALPIMRNEPSSYCSFNNIGGEQEYLYTDVDELNDSDSETY
B2: in test [1], the binding entry was “binds”.

B3: ANKRD52 (endogenous, 293T) (protein, UniProt Q8NB46 1-1076)
chain: MGILSITDQPPLVQAIFSRDVEEVRSLLSQKENINVLDQERRTPLHAAAYVGDVPILQLLLMSGANVNAKDTLWLTPLHRAAASRNEKVLGLLLAHSADVNARDKLWQTPLHVAAANRATKCAEALAPLLSSLNVADRSGRSALHHAVHSGHLETVNLLLNKGASLNVCDKKERQPLHWAAFLGHLEVLKLLVARGADLGCKDRKGYGLLHTAAASGQIEVVKYLLRMGAEIDEPNAFGNTALHIACYLGQDAVAIELVNAGANVNQPNDKGFTPLHVAAVSTNGALCLELLVNNGADVNYQSKEGKSPLHMAAIHGRFTRSQILIQNGSEIDCADKFGNTPLHVAARYGHELLISTLMTNGADTARRGIHDMFPLHLAVLFGFSDCCRKLLSSGQLYSIVSSLSNEHVLSAGFDINTPDNLGRTCLHAAASGGNVECLNLLLSSGADLRRRDKFGRTPLHYAAANGSYQCAVTLVTAGAGVNEADCKGCSPLHYAAASDTYRRAEPHTPSSHDAEEDEPLKESRRKEAFFCLEFLLDNGADPSLRDRQGYTAVHYAAAYGNRQNLELLLEMSFNCLEDVESTIPVSPLHLAAYNGHCEALKTLAETLVNLDVRDHKGRTALFLATERGSTECVEVLTAHGASALIKERKRKWTPLHAAAASGHTDSLHLLIDSGERADITDVMDAYGQTPLMLAIMNGHVDCVHLLLEKGSTADAADLRGRTALHRGAVTGCEDCLAALLDHDAFVLCRDFKGRTPIHLASACGHTAVLRTLLQAALSTDPLDAGVDYSGYSPMHWASYTGHEDCLELLLEHSPFSYLEGNPFTPLHCAVINNQDSTTEMLLGALGAKIVNSRDAKGRTPLHAAAFADNVSGLRMLLQHQAEVNATDHTGRTALMTAAENGQTAAVEFLLYRGKADLTVLDENKNTALHLACSKGHEKCALMILAETQDLGLINATNSALQMPLHIAARNGLASVVQALLSHGATVLAVDEEGHTPALACAPNKDVADCLALILSTMKPFPPKDAVSPFSFSLLKNCSIAAAKTVGGCGALPHGASCPYSQERPGAIGLDGCYSE
For B3, the binding entry in test [1] was “binds”.

The values above are taken from article doi:10.1101/2021.12.06.471409.
